B1: ST6N: rat Galβ1,4GlcNAc α2,6-sialyltransferase (protein, UniProt P13721 1-403, looked up)
Beta-galactoside …: MIHTNLKKKFSLFILVFLLFAVICVWKKGSDYEALTLQAKEFQMPKSQEKVAMGSASQVVFSNSKQDPKEDIPILSYHRVTAKVKPQPSFQVWDKDSTYSKLNPRLLKIWRNYLNMNKYKVSYKGPGPGVKFSVEALRCHLRDHVNVSMIEATDFPFNTTEWEGYLPKENFRTKVGPWQRCAVVSSAGSLKNSQLGREIDNHDAVLRFNGAPTDNFQQDVGSKTTIRLMNSQLVTTEKRFLKDSLYTEGILIVWDPSVYHADIPKWYQKPDYNFFETYKSYRRLNPSQPFYILKPQMPWELWDIIQEISADLIQPNPPSSGMLGIIIMMTLCDQVDIYEFLPSKRKTDVCYYHQKFFDSACTMGAYHPLLFEKNMVKHLNEGTDEDIYLFGKATLSGFRNIRC
B2: ST3N: rat Galβ1,3(4)GlcNAc α2,3 sialyltransferase, Seq. ID 3, 4 (protein)
chain: MGLLVFVRNLLLALCLFLVLGFLYYSAWKLHLLQWEDSNSLILSLDSAGQTLGTEYDRLGFLLKLDSKLPAELATKYANFSEGACKPGYASAMMTAIFPRFSKPAPMFLDDSFRKWARIREFVPPFGIKGQDNLIKAILSVTKEYRLTPALDSLHCRRCIIVGNGGVLANKSLGSRIDDYDIVIRLNSAPVKGFEKDVGSKTTLRITYPEGAMQRPEQYERDSLFVLAGFKWQDFKWLKYIVYKERVSASDGFSKSVATRVPKEPPEIRILNPYFIQEAAFTLIRLPFNNGLMGRGNIPTLGSVAVTMALDGCDEVAVAGFGYDMNTPNAPLHYYETVRMAAIKESWTHNIQREKEFLRKLVKARVITDLSSGI
B3: ST3: Galβ1,3GalNAc/Galβ1,4GlcNAc α2,3 sialyltransferase, Seq. ID 11, 12 (protein)
chain: MCPAGWKLLAMLALVLVVMVWYSISREDRYIEPFYFPIPEKKEPCLQGEAESKASKLFGNYSRDQPIFLRLEDYFWVKTPSAYELPYGTKGSEDLLLRVLAITSSSIPKNIQSLRCRRCVVVGNGHRLRNSSLGDAINKYDVVIRLNNAPVAGYEGDVGSKTTMRLFYPESAHFDPKVENNPDTLLVLVAFKAMDFHWIETILSDKKRVRKGFWKQPPLIWDVNPKQIRILNPFFMEIAADKLLSLPMQQPRKIKQKPTTGLLAITLALHLCDLVHIAGFGYPDAYNKKQTIHYYEQITLKSMAGSGHNVSQEALAIKRMLEMGAIKNLTSF

The series deals with sialidase from Newcastle disease virus. The series is classed as biochemical. To be noted: [14C]NeuAc labeled α1-acid glycoprotein hydrolyzed with Newcastle disease virus sialidase.
For the molecule B1, the “total [14C]NeuAc released from the enzyme's sialylated product” value (from here on “total [14C]NeuAc released”) was 0%.

In the case of B2, the “total [14C]NeuAc released” value is reported as 82%.

In the case of B3, the “total [14C]NeuAc released” value was 83%.

(Values after patent US5858751A, “Compositions and methods for producing sialyltransferases” (The Regents of the University of California, priority 1995, dated 1999).)
